According to US20160367623A1, “AGONISTS OF GUANYLATE CYCLASE USEFUL FOR THE TREATMENT OF GASTROINTESTINAL DISORDERS, INFLAMMATION, CANCER AND OTHER DISORDERS” (priority 2015, published 2016):

Tested on: patients with chronic idiopathic constipation (CIC)
Test: Second phase 3 CIC trial: patient compliance with study medication
Format: in vivo, human
Conditions: ITT Population
[1] = Active Combined (N = 892), Missing Returned Tablet Count Imputed as Number of Pills Dispensed
[2] = Active Combined (N = 892), Missing Returned Tablet Count Imputed as Zero
[3] = Plecanatide 3 mg (N = 443), Missing Returned Tablet Count Imputed as Number of Pills Dispensed
[4] = Plecanatide 3 mg (N = 443), Missing Returned Tablet Count Imputed as Zero
[5] = Plecanatide 6 mg (N = 449), Missing Returned Tablet Count Imputed as Number of Pills Dispensed
[6] = Plecanatide 6 mg (N = 449), Missing Returned Tablet Count Imputed as Zero

With “Asn^1-Asp^2-Glu^3-Cys^4-Glu^5-Leu^6-Cys^7-Val^8-Asn^9-Val^10-Ala^11-Cys^12-Thr^13-Gly^14-Cys^15-Leu^16 (NDECELCVNVACTGCL; disulfides C4-C12, C7-C15) [Plecanatide, uroguanylin analogue, guanylate cyclase-C agonist; (C4:C12, C7:C15) bicycle peptide]” the “% of patients who did not complete study treatment who were compliant with study treatment” value (Active Combined (N = 392), Missing Returned Tablet Count Imputed as Zero) was “(87.2) %”, the “% of patients who completed study treatment who were compliant with study treatment” value [1] was “(95.4) %” and the “% of patients who did not complete study treatment who were compliant with study treatment” value [1] was “(71.8) %”. The “% of patients who were compliant with study treatment” value (“% of patients who were compliant” for short) [1] was “(92.3) %”, the “% of patients who completed study treatment who were compliant with study treatment” value [2] was “(98.6) %” and the “% of patients who were compliant” value [2] was “(97.1) %”. For the same substance, the “% of patients who completed study treatment who were compliant with study treatment” value [3] was “(94.7) %”, the “% of patients who did not complete study treatment who were compliant with study treatment” value [3] was “(81.0) %” and the “% of patients who were compliant” value [3] was “(92.8) %”. The “% of patients who completed study treatment who were compliant with study treatment” value [4] was “(98.7) %”, the “% of patients who did not complete study treatment who were compliant with study treatment” value [4] was “(90.5) %” and the “% of patients who were compliant” value [4] was “(97.5) %”. For the same substance, the “% of patients who completed study treatment who were compliant with study treatment” value [5] was “(95.9) %”, the “% of patients who did not complete study treatment who were compliant with study treatment” value [5] was “(61.1) %” and the “% of patients who were compliant” value [5] was “(91.8) %”. The “% of patients who completed study treatment who were compliant with study treatment” value [6] was “(98.5) %”, the “% of patients who did not complete study treatment who were compliant with study treatment” value [6] was “(83.3) %” and the “% of patients who were compliant” value [6] was “(96.7) %”.
